Laboratory results: PubChem BioAssay AID1224826 (NIAID, 2016)
Assay: 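Regulators of Tlr4 signalling leading to Tnf-alpha expression in macrophages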 (primary screen). Cell system: RAW264.7 G9 macrophages from mouse bearing reporters for p65 (GFP) and the Tnf promoter (mCherry). Reagents: siRNA pool against mouse genes, 100 nM. Time to read-out: 16 h of LPS stimulation, after 2 days of siRNA transfection. Challenge: bacterial lipopolysaccharide (Salmonella minnesota R595), 10 ng/ml. Read-out: 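Imaged Tnf reporter mCherry in nuclei, minus background, normalised per plate to the median and expressed as robust z-scores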. Direction: Tnf reporter robust z-score: higher = stronger Tnf promoter reporter signal after LPS; Tnf reporter intensity: higher = stronger Tnf promoter reporter signal. Active means: 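Called active when robust z-score is at most -1.3, matching the median of the Tlr4 knock-down control, or over 3; control wells and wells with under 50 cells never active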. Calls: active = Tnf reporter clearly lowered or raised; inactive = no clear change in Tnf reporter.
The whole screen tested about 17,000 reagents; shown is an unselected part. Of all reagents, about 1,110 (6.6%) were called active. 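Active means lowered or raised reporter signal; replicate intensities are raw and not normalised per plate.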 Reagents against one gene are numbered here.

gene	reagent no.	Tnf reporter robust z-score	fewer than 50 cells in well	Tnf reporter intensity, replicate 1	Tnf reporter intensity, replicate 2	Outcome
Tomm20 (GeneID 67952)	1	-0.74	enough cells in well	99.8	60	inactive
9130401M01Rik (GeneID 75758)	1	-0.85	enough cells in well	157	105	inactive
Nek3 (GeneID 23954)	1	0.18	enough cells in well	161	215	inactive
Unc45b (GeneID 217012)	1	-1.2	enough cells in well	90.7	115	inactive
Psmb7 (GeneID 19177)	1	4.32	enough cells in well	194	314	active
Cnnm1 (GeneID 83674)	1	-0.64	enough cells in well	205	152	inactive
Rpp21 (GeneID 67676)	1	1.07	enough cells in well	199	149	inactive
Tspan6 (GeneID 56496)	1	2.6	enough cells in well	222	174	inactive
Osgin2 (GeneID 209212)	1	-1.07	enough cells in well	113	154	inactive
Fam221b (GeneID 242408)	1	-1.41	enough cells in well	127	28.6	active
Ibsp (GeneID 15891)	1	1.06	enough cells in well	286	287	inactive
Dck (GeneID 13178)	1		fewer than 50 cells per well; well left out of calls	77.1	98.7	inactive
Akap13 (GeneID 75547)	1	0.06	enough cells in well	202	129	inactive
Tmem132c (GeneID 208213)	1		fewer than 50 cells per well; well left out of calls	152	78.4	inactive
Ccl3 (GeneID 20302)	1	-0.26	enough cells in well	168	320	inactive
Nfs1 (GeneID 18041)	1	-0.96	enough cells in well	160	67.8	inactive
Ca11 (GeneID 12348)	1	-1.6	enough cells in well	72.3	85.8	active
Col27a1 (GeneID 373864)	1	0.37	enough cells in well	231	174	inactive
Or4x15 (GeneID 257665)	1	-0.59	enough cells in well	152	92	inactive
Bag4 (GeneID 67384)	1	0.77	enough cells in well	176	213	inactive
Hoxb1 (GeneID 15407)	1	0.54	enough cells in well	256	245	inactive
Steap1 (GeneID 70358)	1	0.75	enough cells in well	157	96	inactive
Stpg1 (GeneID 78806)	1		fewer than 50 cells per well; well left out of calls	216	47.8	inactive
Tmem215 (GeneID 320500)	1	2.31	enough cells in well	298	280	inactive
Gpx2 (GeneID 14776)	1	1.64	enough cells in well	349	410	inactive
Cxcl15 (GeneID 20309)	1	-1.01	enough cells in well	119	114	inactive
Grid2ip (GeneID 170935)	1	0.36	enough cells in well	256	197	inactive
Vstm4 (GeneID 320736)	1		fewer than 50 cells per well; well left out of calls	168	106	inactive
Ankrd33b (GeneID 67434)	1	-0.14	enough cells in well	290	62.3	inactive
Tcp10b (GeneID 21462)	1		fewer than 50 cells per well; well left out of calls	136	57.1	inactive
Tollip (GeneID 54473)	1	-0.1	enough cells in well	224	101	inactive
Dnajc15 (GeneID 66148)	1	-0.61	enough cells in well	152	135	inactive
Arl5c (GeneID 217151)	1	1.01	enough cells in well	22.5	221	inactive
Nuak1 (GeneID 77976)	1	-0.81	enough cells in well	160	100	inactive
Prph2 (GeneID 19133)	1	2.02	enough cells in well	442	153	inactive
Ppp4r4 (GeneID 74521)	1	1.27	enough cells in well	237	213	inactive
Cdk15 (GeneID 271697)	1	2.55	enough cells in well	367	297	inactive
Cnga1 (GeneID 12788)	1	-0.67	enough cells in well	172	179	inactive
Vps13a (GeneID 271564)	1	3.23	enough cells in well	416	318	active
Stimate (GeneID 69179)	1		fewer than 50 cells per well; well left out of calls	314	102	inactive
Cchcr1 (GeneID 240084)	1	-0.04	enough cells in well	254	154	inactive
Sprr2h (GeneID 20762)	1	1.86	enough cells in well	163	161	inactive
Or51a5 (GeneID 259115)	1	-1.47	enough cells in well	84.6	56.5	active
Cblif (GeneID 14603)	1	0.09	enough cells in well	300	210	inactive
Rpn2 (GeneID 20014)	1	-1.95	enough cells in well	51.3	36.2	active
Pcdha11 (GeneID 12942)	1	0.94	enough cells in well	211	160	inactive
Cxcl5 (GeneID 20311)	1	0.89	enough cells in well	289	280	inactive
Iap (retired record) (GeneID 15598)	1	0.64	enough cells in well	258	143	inactive
A130010J15Rik (GeneID 319266)	1	1.36	enough cells in well	273	198	inactive
Zfp790 (GeneID 233056)	1	1.53	enough cells in well	275	216	inactive
Pde4d (GeneID 238871)	1	0.32	enough cells in well	305	172	inactive
Pde4d (GeneID 238871)	2	0.24	enough cells in well	205	193	inactive
Ghrl (GeneID 58991)	1	-0.89	enough cells in well	191	114	inactive
Ptbp2 (GeneID 56195)	1		fewer than 50 cells per well; well left out of calls	210	142	inactive
Diaph1 (GeneID 13367)	1	0.03	enough cells in well	219	224	inactive
Or51ab3 (GeneID 259104)	1	0.53	enough cells in well	71.1	196	inactive
Cdk2 (GeneID 12566)	1	0.33	enough cells in well	148	244	inactive
4932411K12Rik (retired record) (GeneID 328325)	1		fewer than 50 cells per well; well left out of calls	337	142	inactive

4 entries from above, showing only “Tnf reporter intensity, replicate 2”.
Cxcl5 (GeneID 20311)	280
Iap (retired record) (GeneID 15598)	143
A130010J15Rik (GeneID 319266)	198
Zfp790 (GeneID 233056)	216
